No constants are given. Whether binding was seen depends on the method and setting. Binding seen in cells or lysates may run through a third protein. Some entries that bind do so weakly or less than the wild type. Where a sequence is shown, tags or fusion partners need not be part of it.
B1: TBC1D10A(R160A)-GFP (enzyme, UniProt Q9BXI6 1-508)
chain: MAKSNGENGPRAPAAGESLSGTRESLAQGPDAATTDELSSLGSDSEANGFAERRIDKFGFIVGSQGAEGALEEVPLEVLRQRESKWLDMLNNWDKWMAKKHKKIRLRCQKGIPPSLRGRAWQYLSGGKVKLQQNPGKFDELDMSPGDPKWLDVIERDLHAQFPFHEMFVSRGGHGQQDLFRVLKAYTLYRPEEGYCQAQAPIAAVLLMHMPAEQAFWCLVQICEKYLPGYYSEKLEAIQLDGEILFSLLQKVSPVAHKHLSRQKIDPLLYMTEWFMCAFSRTLPWSSVLRVWDMFFCEGVKIIFRVGLVLLKHALGSPEKVKACQGQYETIERLRSLSPKIMQEAFLVQEVVELPVTERQIEREHLIQLRRWQETRGELQCRSPPRLHGAKAILDAEPGPRPALQPSPSIRLPLDAPLPGSKAKPKPPKQAQKEQRKQMKGRGQLEKPPAPNQAMVVAAAGDACPPQHVPPKDSAPKDSAPQDLAPQVSAHHRSQESLTSQESEDTYL
B2: ACAP2–GFP (protein, UniProt Q15057 1-778)
chain: MKMTVDFEECLKDSPRFRAALEEVEGDVAELELKLDKLVKLCIAMIDTGKAFCVANKQFMNGIRDLAQYSSNDAVVETSLTKFSDSLQEMINFHTILFDQTQRSIKAQLQNFVKEDLRKFKDAKKQFEKVSEEKENALVKNAQVQRNKQHEVEEATNILTATRKCFRHIALDYVLQINVLQSKRRSEILKSMLSFMYAHLAFFHQGYDLFSELGPYMKDLGAQLDRLVVDAAKEKREMEQKHSTIQQKDFSSDDSKLEYNVDAANGIVMEGYLFKRASNAFKTWNRRWFSIQNNQLVYQKKFKDNPTVVVEDLRLCTVKHCEDIERRFCFEVVSPTKSCMLQADSEKLRQAWIKAVQTSIATAYREKGDESEKLDKKSSPSTGSLDSGNESKEKLLKGESALQRVQCIPGNASCCDCGLADPRWASINLGITLCIECSGIHRSLGVHFSKVRSLTLDTWEPELLKLMCELGNDVINRVYEANVEKMGIKKPQPGQRQEKEAYIRAKYVERKFVDKYSISLSPPEQQKKFVSKSSEEKRLSISKFGPGDQVRASAQSSVRSNDSGIQQSSDDGRESLPSTVSANSLYEPEGERQDSSMFLDSKHLNPGLQLYRASYEKNLPKMAEALAHGADVNWANSEENKATPLIQAVLGGSLVTCEFLLQNGANVNQRDVQGRGPLHHATVLGHTGQVCLFLKRGANQHATDEEGKDPLSIAVEAANADIVTLLRLARMNEEMRESEGLYGQPGDETYQDIFRDFSQMASNNPEKLNRFQQDSQKF

Amino acid sequences for entries named in this document (tags omitted). A change or cut given only in a name is not applied to a line headed by its entry.
UniProt Q15286: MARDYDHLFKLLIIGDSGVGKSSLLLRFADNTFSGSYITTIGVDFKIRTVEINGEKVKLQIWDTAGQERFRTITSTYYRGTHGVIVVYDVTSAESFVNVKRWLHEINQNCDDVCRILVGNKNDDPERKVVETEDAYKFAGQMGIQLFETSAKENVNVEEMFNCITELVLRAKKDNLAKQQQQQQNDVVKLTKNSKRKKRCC

How the values were obtained:
Rab35(Q67A)-Myc = Rab35(Q67A)-Myc (UniProt Q15286); assay: co-IP; HEK-293T co-transfected; cells treated with 10 mM NaF and 100 uM AlCl3 for 30 min at 37 °C, lysed in RabGAP buffer (1% Brij 97, 1% Triton X-100, 150 mM NaCl, 10 mM Tris/HCl pH 7.5, with DTSSP); anti-Myc antibodies on Dynabeads, 2 h, 4 °C; isotype control
Rab35(Q67A)–GST = Rab35(Q67A)–GST (UniProt Q15286); assay: pull-down; GSH beads coupled to 3 ug GST-Rab35 proteins or GST alone, incubated 3–4 h at 4 °C with HEK-293T lysates containing ACAP2–GFP; immunoblot with anti-GFP; only the target purified
Rab35-WT–GST = Rab35-WT–GST (UniProt Q15286); assay: as above
Rab35-WT–Myc = Rab35-WT–Myc (UniProt Q15286); assay: co-IP; HEK-293T expressing ACAP2–GFP and Rab35-WT–Myc; IP buffer 25 mM Tris/HCl pH 7.4, 150 mM NaCl, 1 mM EDTA, 1% Nonidet P-40, 5% glycerol; anti-c-Myc antibodies on Dynabeads, 2 h, 4 °C; isotype control

Row | Binder | binding (Rab35(Q67A)-Myc) | binding (Rab35(Q67A)–GST) | binding (Rab35-WT–GST) | binding (Rab35-WT–Myc)
1 | B1 | binds |  |  | 
2 | B2 |  | binds | binds | binds
